Measurements: patent US4028399A, “Carbamate” (priority 1969, dated 1977)
At least one structure is not confirmed: it was looked up by name or label, or the drawing left a doubt.

Tested on: insects
Test: Insecticidal action, overall statement in words
Assay type: in vivo

Structure (SMILES): CCc1cc(CC)cc(OC(=O)NC)c1 [3,5-diethyl-phenyl-N-methylcarbamate]
- superiority over known active ingredients (conclusion from Examples 1 and 2): superiority
- insecticidal action (general statement): extremely strong insecticidal action
